Results: publication PMC6713708
These are yes or no findings as the source states them, for the method shown. In cells and extracts the contact can be indirect. Some entries that bind do so weakly or less than the wild type. Where a sequence is shown, tags or fusion partners need not be part of it.

T1: GST-Syntaxin5 full length cytoplasmic domain (AA1-275) (rat) (UniProt Q08851)
T1 sequence: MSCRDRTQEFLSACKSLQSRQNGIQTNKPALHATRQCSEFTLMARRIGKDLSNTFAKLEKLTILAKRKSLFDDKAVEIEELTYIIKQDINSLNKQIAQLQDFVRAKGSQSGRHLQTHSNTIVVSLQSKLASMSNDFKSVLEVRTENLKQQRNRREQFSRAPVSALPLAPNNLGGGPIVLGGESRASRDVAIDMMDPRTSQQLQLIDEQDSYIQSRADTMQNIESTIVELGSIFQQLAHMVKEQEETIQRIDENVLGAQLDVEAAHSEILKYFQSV

B1: GM130 (protein, UniProt Q08379 1-1002)
chain: MWPQPRLPPRPAMSEETRQSKLAAAKKKLREYQQRNSPGVPTGAKKKKKIKNGSNPETTTSGGCHSPEDTPKDNAATLQPSDDTVLPGGVPSPGASLTSMAASQNHDADNVPNLMDETKTFSSTESLRQLSQQLNGLVCESATCVNGEGPASSANLKDLESRYQQLAVALDSSYVTNKQLNITIEKLKQQNQEITDQLEEEKKECHQKQGALREQLQVHIQTIGILVSEKAELQTALAHTQHAARQKEGESEDLASRLQYSRRRVGELERALSAVSTQQKKADRYNKELTKERDALRLELYKNTQSNEDLKQEKSELEEKLRVLVTEKAGMQLNLEELQKKLEMTELLLQQFSSRCEAPDANQQLQQAMEERAQLEAHLGQVMESVRQLQMERDKYAENLKGESAMWRQRMQQMSEQVHTLREEKECSMSRVQELETSLAELRNQMAEPPPPEPPAGPSEVEQQLQAEAEHLRKELEGLAGQLQAQVQDNEGLSRLNREQEERLLELERAAELWGEQAEARRQILETMQNDRTTISRALSQNRELKEQLAELQSGFVKLTNENMEITSALQSEQHVKRELGKKLGELQEKLSELKETVELKSQEAQSLQQQRDQYLGHLQQYVAAYQQLTSEKEVLHNQLLLQTQLVDQLQQQEAQGKAVAEMARQELQETQERLEAATQQNQQLRAQLSLMAHPGEGDGLDREEEEDEEEEEEEAVAVPQPMPSIPEDLESREAMVAFFNSAVASAEEEQARLRGQLKEQRVRCRRLAHLLASAQKEPEAAAPAPGTGGDSVCGETHRALQGAMEKLQSRFMELMQEKADLKERVEELEHRCIQLSGETDTIGEYIALYQSQRAVLKERHREKEEYISRLAQDKEEMKVKLLELQELVLRLVGDRNEWHGRFLAAAQNPADEPTSGAPAPQELGAANQQGDLCEVSLAGSVEPAQGEAREGSPRDNPTAQQIMQLLREMQNPRERPGLGSNPCIPFFYRADENDEVKITVI
B2: YFP-Golgin45 (protein, UniProt Q9H2G9 1-400)
chain: MTTKNLETKVTVTSSPIRGAGDGMETEEPPKSVEVTSGVQSRKHHSLQSPWKKAVPSESPGVLQLGKMLTEKAMEVKAVRILVPKAAITHDIPNKNTKVKSLGHHKGEFLGQSEGVIEPNKELSEVKNVLEKLKNSERRLLQDKEGLSNQLRVQTEVNRELKKLLVASVGDDLQYHFERLAREKNQLILENEALGRNTAQLSEQLERMSIQCDVWRSKFLASRVMADELTNSRAALQRQNRDAHGAIQDLLSEREQFRQEMIATQKLLEELLVSLQWGREQTYSPSVQPHSTAELALTNHKLAKAVNSHLLGNVGINNQKKIPSTVEFCSTPAEKMAETVLRILDPVTCKESSPDNPFFESSPTTLLATKKNIGRFHPYTRYENITFNCCNHCRGELIAL

Biological target: T1, GST-Syntaxin5 full length cytoplasmic domain (AA1-275) (rat)
Experiment: pull-down; GST-Syntaxin5 cytoplasmic domain or GST-GS15 as bait; prey from HeLa cell extract; only the target purified

Row | Binder | binding
1 | B1 | binds
2 | B2 | binds
